Results from patent publication US7037678.
No constants are given. Whether binding was seen depends on the method and setting. Binding seen in cells or lysates may run through a third protein. Some binding calls cover weakened binding; strength is not graded here.

Protein sequences, listed by entry. Tags and fused reporters are not part of them. Lines headed by an entry give the natural chain unless they say otherwise; changes in a name come on top.
UniProt Q9DF50: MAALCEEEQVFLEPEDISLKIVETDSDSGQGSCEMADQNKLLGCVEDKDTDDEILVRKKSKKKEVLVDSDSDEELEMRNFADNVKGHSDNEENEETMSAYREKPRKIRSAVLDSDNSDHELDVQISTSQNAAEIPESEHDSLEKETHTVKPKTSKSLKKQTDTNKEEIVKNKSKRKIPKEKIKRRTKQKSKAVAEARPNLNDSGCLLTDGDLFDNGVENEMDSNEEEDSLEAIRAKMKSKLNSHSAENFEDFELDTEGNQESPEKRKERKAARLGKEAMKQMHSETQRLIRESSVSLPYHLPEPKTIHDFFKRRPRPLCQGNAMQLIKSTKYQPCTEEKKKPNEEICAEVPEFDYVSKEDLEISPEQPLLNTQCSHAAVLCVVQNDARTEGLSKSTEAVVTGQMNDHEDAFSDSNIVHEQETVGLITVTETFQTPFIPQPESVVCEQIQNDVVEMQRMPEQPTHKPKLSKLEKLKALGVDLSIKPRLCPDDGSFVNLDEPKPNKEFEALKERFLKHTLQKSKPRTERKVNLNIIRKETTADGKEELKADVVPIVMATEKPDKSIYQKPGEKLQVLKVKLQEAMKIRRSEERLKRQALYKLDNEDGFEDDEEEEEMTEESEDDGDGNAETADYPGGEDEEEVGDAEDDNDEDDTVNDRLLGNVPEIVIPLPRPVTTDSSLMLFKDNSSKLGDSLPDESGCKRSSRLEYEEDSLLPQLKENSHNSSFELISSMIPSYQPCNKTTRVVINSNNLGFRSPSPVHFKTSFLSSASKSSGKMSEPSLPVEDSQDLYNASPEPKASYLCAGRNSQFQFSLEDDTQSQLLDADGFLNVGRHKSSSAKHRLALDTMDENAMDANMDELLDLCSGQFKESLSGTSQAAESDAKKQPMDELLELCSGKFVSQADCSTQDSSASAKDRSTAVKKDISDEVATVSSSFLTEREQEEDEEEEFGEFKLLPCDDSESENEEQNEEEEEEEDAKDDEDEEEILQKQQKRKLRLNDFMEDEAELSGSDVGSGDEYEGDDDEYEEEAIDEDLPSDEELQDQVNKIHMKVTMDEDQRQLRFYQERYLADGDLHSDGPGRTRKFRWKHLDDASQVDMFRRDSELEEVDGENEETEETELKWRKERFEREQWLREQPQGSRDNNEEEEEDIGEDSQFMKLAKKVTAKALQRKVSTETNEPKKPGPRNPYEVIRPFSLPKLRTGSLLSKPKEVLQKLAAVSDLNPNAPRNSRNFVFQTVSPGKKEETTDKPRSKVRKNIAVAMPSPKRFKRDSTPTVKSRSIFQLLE

Target: T1, endogenous Xchk1 of Xenopus egg extract (Xenopus) (UniProt Q6DE87)
T1 sequence (looked up): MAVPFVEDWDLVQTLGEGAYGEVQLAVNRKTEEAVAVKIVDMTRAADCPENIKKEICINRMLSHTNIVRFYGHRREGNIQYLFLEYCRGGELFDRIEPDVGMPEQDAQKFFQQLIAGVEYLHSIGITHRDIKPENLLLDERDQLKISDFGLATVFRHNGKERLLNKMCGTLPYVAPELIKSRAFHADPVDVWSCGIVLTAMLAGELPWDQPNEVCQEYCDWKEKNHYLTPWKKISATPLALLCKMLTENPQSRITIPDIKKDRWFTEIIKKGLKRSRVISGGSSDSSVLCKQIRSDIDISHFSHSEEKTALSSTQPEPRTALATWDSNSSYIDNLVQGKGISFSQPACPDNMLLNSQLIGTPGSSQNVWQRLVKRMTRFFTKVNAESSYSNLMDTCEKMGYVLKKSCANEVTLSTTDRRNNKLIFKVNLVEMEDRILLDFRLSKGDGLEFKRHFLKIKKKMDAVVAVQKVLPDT
Test: co-immunoprecipitation from egg extract with anti-Xchk1 antibodies, immunoblot with anti-Claspin antibodies; binding was significantly reduced with caffeine

- binding: binds
Substance: endogenous Claspin of Xenopus egg extract (from UniProt Q9DF50 1-1285)
